{
  "source": "ChEMBL document CHEMBL4014298",
  "about": "“Discovery of a series of 8-(1-phenylpyrrolidin-2-yl)-6-carboxamide-2-morpholino-4H-chromen-4-one as PI3Kβ/δ inhibitors for the treatment of PTEN-deficient tumours” (Bioorg Med Chem Lett, 2017)",
  "assay": "Lipophilicity, log D of the compound at pH 7.4",
  "details": "buffer",
  "data": [
    {"smiles": "CN(C)C(=O)c1cc(C2CCCN2c2ccccc2)c2oc(N3CCOCC3)cc(=O)c2c1", "note": "(racemic)", "values": [
      {"measurement": "logD", "result": 2.4}
    ]}
  ]
}
